Laboratory results as given in article PMC4829432, “T-box3 is a ciliary protein and regulates stability of the Gli3 transcription factor to control digit number” (eLife, 2016).

Molecular target: T1, T-box3 (Tbx3), endogenous mouse protein (mouse (endogenous in E10.5 embryos)) (UniProt P70324)
T1 sequence: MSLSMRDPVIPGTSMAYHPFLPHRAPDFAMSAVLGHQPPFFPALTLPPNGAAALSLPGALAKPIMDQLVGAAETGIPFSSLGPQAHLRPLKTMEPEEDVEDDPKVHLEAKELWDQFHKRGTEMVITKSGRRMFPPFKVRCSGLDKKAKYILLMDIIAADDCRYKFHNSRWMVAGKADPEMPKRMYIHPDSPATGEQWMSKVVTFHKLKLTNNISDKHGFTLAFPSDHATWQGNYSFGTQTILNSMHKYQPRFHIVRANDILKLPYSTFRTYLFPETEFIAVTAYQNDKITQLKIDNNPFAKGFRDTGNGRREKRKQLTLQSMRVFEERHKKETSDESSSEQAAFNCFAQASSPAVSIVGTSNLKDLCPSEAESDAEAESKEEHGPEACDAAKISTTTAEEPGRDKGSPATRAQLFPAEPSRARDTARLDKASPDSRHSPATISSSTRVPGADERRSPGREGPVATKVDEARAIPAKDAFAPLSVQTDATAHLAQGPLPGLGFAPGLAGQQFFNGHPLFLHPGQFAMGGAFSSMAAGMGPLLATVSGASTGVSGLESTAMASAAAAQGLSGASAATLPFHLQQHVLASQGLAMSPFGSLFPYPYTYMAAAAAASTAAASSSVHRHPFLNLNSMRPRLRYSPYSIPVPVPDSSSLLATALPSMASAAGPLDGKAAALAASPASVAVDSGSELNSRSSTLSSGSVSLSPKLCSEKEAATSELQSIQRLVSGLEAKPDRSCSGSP
Assay: affinity purification with mass spectrometry; Tbx3 co-immunoprecipitation on E10.5 mouse embryo lysates, followed by mass spectrometry; endogenous proteins

B1: Kif7, endogenous mouse protein (natural protein, mouse (endogenous in E10.5 embryos), UniProt B7ZNG0 1-1348, looked up)
chain: MGLEAQRLPGAEEAPVRVALRVRPLLPKELLHGHQSCLRVEPERGRITLGRDRHFGFHVVLGEDTGQEAVYQACVQPLLEAFFEGFNATVFAYGQTGSGKTYTMGEASVASLHEDEQGIIPRAMAEAFKLIDENDLLDCLVHVSYLELYKEEFRDLLEVGTASRDIQLREDDRGNVVLCGVKEVDVEGLDEVLSLLEMGNAARHTGATHFNRLSSRSHTVFTVTLEQRGRTPSRLPRPAAGHLLVSKFHFVDLAGSERVLKTGSTGERLKESIQINSTLLALGNVISALGDPQRRGSHIPYRDSKITRILKDSLGGNAKTVMIACVSPSSSDFDETLNTLNYASRAQNIRNRATVNWHPEAERVPEEQAAGARGPPRHRSETRIIHRGRRVPCPAVGSAAVAAGLGAECARCRARTSAAYSLLRELQAEPGLPGAAARKVRDWLCAVEGERSTLSSASGPDSGIESAPAEDQAAQGTSGRKGDEGTQQLLTLQSQVARLEEENRDFLAALEDAMEQYKLQSDRLREQQEEMVELRLRLELAQPGWGAPGLLQGLPPGSFVPRPHTAPLGGAHTHMLGMMPSTCLPGEEVSSEQQVVSGKEVKAEVLAQADKLRSASSTTSEEEGEEEEEEEEEEEEPPRRTLYLRRNGISNWSQRAGLSPGSPPDRKGPEVCPEEPAAAIPAPQAVGSGKVPVQTRQAPAAMASEWRLAQAQQKIRELAINIRMKEELIGELVRTGKAAQALNRQHSQRIRELEQEAERVRAELCEGQRQLRELEGREPQDASERSRLQEFRKRVAAAQSQVQVLKEKKQATERLVSLSAQSETRLQELERNVQLMRRQQGQLQRRLREETEQKRRLETEMNKRQHRVKELELKHEQQQKILKIKTEEIAAFQRKRRSGSNGSVVSLEQQQKIEEQKKWLDQEMEKVLQQRRALEELGEELRKREVILAKKEALMQEKTGLESKRLRSSQALNEDIVRVSSRLEHLEKELSEKSGQLRQGSAQNQQQIRGEIDTLRQEKDSLLKQRLEIDSKLRQGSLLSPEEERTLFQLDEAIEALDAAIEYKNEAITCRQRVLRASASLLSQCEMNLMAKLSYLSSSETRALLCKYFDKVVTLREEQHQQQIAFSELEMQLEEQQRLVYWLEVALERQRLEMDRQLTLQQKEHEQNVQLLLQQGRDHLGEGLADSKRQYEARIHALEKELGRHMWINQELKQKLSAGSTAGQSQGCERRSLCLENRQCLGNEDGLHPAAPEPLWQSSLLEGVSRVWDESRDLVHAPLPLTWKRSSLCSEQGSSEESRVRETTEPPVGRVLPMGEVGLSWNFGPLPKPRWEPRRTSPGMIDVRKNPL
notes: Kif7, ciliary kinesin family protein, mouse, endogenous in E10.5 forelimb buds and whole embryos; source: endogenous, E10.5 mouse forelimb bud lysate or E10.5 whole embryo lysate (control or Tbx3 null)
B1 was tested. Which binding did it give?
Its binding is “binds”.

These are yes or no findings as the source states them, for the method shown. Binding seen in cells or lysates may run through a third protein. Here binding means that the protein was enriched with, or labelled near, the bait; the list need not be complete.
